These are yes or no findings as the source states them, for the method shown.
Molecular target: serum albumin (coat of control wells in the biological rolling assay) (bovine (BSA in the methods)) (UniProt P02769)
Experiment: biological rolling assay (BRA; adherence of receptor-bearing cells to coated U-bottom wells); wells coated overnight with 10 μg/mL protein in 0.2 M bicarbonate pH 9.4 at 4°C, blocked with PBS/1% BSA; 2.5x10^4 Jurkat or CHO transfectants with or without sCA125 in ADCC assay buffer, 37°C, 5 hr; competitors at 50 μg/mL; only the target purified

By UniProt entry, the sequences of proteins in these tests, tags left out. Residues count along the entry.
UniProt P02769, residues 25-607: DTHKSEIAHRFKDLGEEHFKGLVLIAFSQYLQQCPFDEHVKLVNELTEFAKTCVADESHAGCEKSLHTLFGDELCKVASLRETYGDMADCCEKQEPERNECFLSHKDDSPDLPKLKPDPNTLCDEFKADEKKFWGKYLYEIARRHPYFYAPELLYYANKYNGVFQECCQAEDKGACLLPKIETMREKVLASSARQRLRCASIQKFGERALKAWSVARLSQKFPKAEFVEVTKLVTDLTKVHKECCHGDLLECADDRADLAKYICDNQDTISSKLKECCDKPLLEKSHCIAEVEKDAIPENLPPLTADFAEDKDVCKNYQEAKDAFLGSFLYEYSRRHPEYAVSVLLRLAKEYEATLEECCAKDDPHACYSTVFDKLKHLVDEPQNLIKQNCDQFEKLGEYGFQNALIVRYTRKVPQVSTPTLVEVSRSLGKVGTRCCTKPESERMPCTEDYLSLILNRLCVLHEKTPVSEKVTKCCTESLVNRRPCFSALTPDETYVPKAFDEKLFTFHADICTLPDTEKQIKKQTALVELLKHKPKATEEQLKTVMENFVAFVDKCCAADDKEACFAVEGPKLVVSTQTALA
UniProt P08637, residues 17-254: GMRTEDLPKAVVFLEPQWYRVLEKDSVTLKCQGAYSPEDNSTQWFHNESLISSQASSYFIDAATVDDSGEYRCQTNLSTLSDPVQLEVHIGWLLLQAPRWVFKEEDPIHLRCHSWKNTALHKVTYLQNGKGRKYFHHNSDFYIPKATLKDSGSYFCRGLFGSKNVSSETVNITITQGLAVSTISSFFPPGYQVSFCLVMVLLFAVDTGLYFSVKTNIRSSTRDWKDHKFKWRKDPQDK

## human CD16a Fc-gamma receptor on Jurkat-CD16a cells (from UniProt P08637 17-254)
  binding: no binding
